Measurements published in PubChem BioAssay AID2685 (National Center for Advancing Translational Sciences (NCATS), 2010).
The other results are listed elsewhere or left out. The main result of the screen is listed elsewhere. These columns were measured beside it and carry no call. Compounds called inactive in the main read-out are mostly missing here. The note in brackets gives the kind of curve behind each potency; many fits are weak.

Assay: qHTS Assay for Lipid Storage Modulators in Drosophila S3 Cells;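 for cell number change: cells counted by Cell Tracker Red CMTPX staining in the red channel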
Conditions: BODIPY lipid droplet fluorescence, 18-24 h; for cell number change: measured here: cell count max response, cells fed with added oleic acid
Summary of the method: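 Laser-scanning cytometry quantifies lipid droplet accumulation (500–530 nm total intensity; droplet/cell object ratio) in oleic acid-fed (400 uM added) Drosophila S3 cells treated with a concentration series. 20 uM Triacsin C defined 100% inhibition.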

[1] = measured here: cell number channel AC50, cells fed with added oleic acid
[2] = measured here: lipid fluorescence (Fed channel) AC50, cells fed with added oleic acid

Compound	AC50 [1]	AC50 [2]	cell number change
S=C(NCC1CCCO1)Nc1cc(Cl)c(Cl)cc1Cl (stereo not given)	6.51 µM [rising, single point]	6.51 µM [rising, single point]	–
COc1cccc(OC)c1C(=O)Nc1ccc2c(c1)N(S(=O)(=O)c1cccs1)CCC2	–	0.82 µM [rising, full curve, poor fit]	-2.99%
Cc1ccc(S(=O)(=O)N2CCCC(C(=O)NCCc3ccc4c(c3)OCO4)C2)cc1 (stereo not given)	1.84 µM [rising, full curve]	5.17 µM [rising, partial curve]	31%
CCCCOC(=O)CSCC(=O)Nc1cc(C)on1	–	–	23.2%
CCCCN(CCCC)S(=O)(=O)c1ccc(NC(=O)CN2CCOCC2)cc1	29.1 µM [falling, single point]	–	-32.1%
COc1ccc(NC(=O)c2sc(NC(=O)C3CC3)nc2C)cc1	–	14.6 µM [falling, single point]	10.6%
CCc1cc(C(=O)COc2ccccc2F)c(O)cc1O	29.1 µM [falling, single point]	–	-195%
COc1ccc(C(=O)N/C(=C\c2ccccc2)C(=O)Nc2ccc(C(=O)O)cc2)cc1	10.3 µM [rising, partial curve]	–	30.3%
CC(=O)c1ccc(N2CCN(C(=O)C3CCN(S(=O)(=O)c4ccc5c(c4)CC(C)N5C(=O)C4CC4)CC3)CC2)cc1 (stereo not given)	–	23.1 µM [falling, single point]	-27.4%
O=C(O)C1C2CC2CN1C(=O)c1ccc(Cl)cc1Cl (stereo not given)	–	14.6 µM [rising, partial curve]	-21.8%
Cc1ccccc1C(=O)N1CCC(C(=O)Nc2nccs2)CC1	2.59 µM [rising, partial curve]	–	6.49%
Cn1c(=O)c2ccccc2n(Cc2ccccc2Cl)c1=O	–	–	-5.26%
Cc1ccc(N2C(=O)N3[C@H](c4ccc(F)cc4)[C@@H]4C(=O)N(C5CCCCC5)C(=O)[C@@H]4[C@]3(Cc3ccccc3)C2=O)cc1	18.4 µM [rising, single point]	–	41.7%
O=c1c2ccccc2cnn1CCOc1cccc(Br)c1	18.4 µM [rising, single point]	4.61 µM [rising, full curve, poor fit]	37.6%
O=[N+]([O-])c1c(Nc2ccccn2)cc(Cl)c2nonc12	0.0146 µM [falling, full curve]	14.6 µM [falling, partial curve, poor fit]	-64%
O=C(OCn1nnc2ccccc2c1=O)C1COc2ccccc2O1 (stereo not given)	–	29.1 µM [falling, partial curve, poor fit]	-14.7%
Cc1cc(=O)c(C(=O)O)nn1-c1ccccc1Cl	–	0.461 µM [falling, partial curve]	24.2%
Cc1ccc(-c2cc(-c3ccccc3)c(C#N)c(N)n2)o1	2.91 µM [rising, single point]	–	–
Cc1ccccc1NC(=O)Cn1cnc2c(oc3nc4c(cc32)COC(C)(C)C4)c1=O	–	–	17.2%
O=[N+]([O-])c1ccccc1NCCNS(=O)(=O)c1ccc(Cl)cc1	–	29.1 µM [rising, single point]	19.9%

Compound	AC50 [1]	AC50 [2]	cell number change
COc1ccc(CC(CC(=O)O)C(=O)Nc2ccc(Cl)c(Cl)c2)cc1 (stereo not given)	–	10.3 µM [rising, partial curve]	9.59%
O=C(Nc1ccccn1)c1ccco1	–	–	-6.14%
Cn1c(SCC(=O)Nc2nc(C(C)(C)C)cs2)nnc1C1CC1	11.6 µM [falling, partial curve, poor fit]	9.2 µM [falling, partial curve]	-48%
CC(=O)/C=C(\C)Nc1ccc(-c2cnc(-c3ccccc3)o2)cc1	–	–	-25%
Cc1ccc(N(CCC#N)C(=O)CCl)cc1C	–	23.1 µM [falling, single point]	-7.97%
CN1CCN(c2ccccc2NC(=O)c2ccc3c(c2)OCCO3)CC1	–	–	17%
O=C(Nc1ccc(F)cc1)c1cccc2c1C(=O)N(Cc1ccccn1)C2	1.84 µM [rising, full curve]	0.259 µM [rising, full curve]	63.3%
CC(=O)N(c1ccccc1Cl)S(=O)(=O)c1ccc(Cl)cc1	–	1.03 µM [rising, single point]	26.1%
Cc1ccc(NC(=O)CN(C)Cc2cc(=O)n3ccsc3n2)cc1	–	20.6 µM [rising, single point]	18%
COc1ccc(NC(=O)CN(C)C(=O)C2=COCCO2)cc1	–	3.66 µM [falling, full curve]	-19.2%
Cc1ccc(S(=O)(=O)c2nc(-c3ccccc3F)oc2N2CC(C)OC(C)C2)cc1 (stereo not given)	4.11 µM [falling, single point]	–	–
O=C(OCc1ccccc1)N1CCc2ccccc21	–	29.1 µM [rising, partial curve, poor fit]	-10.3%
O=S(=O)(Nc1ccc(Cl)cc1)c1cccc2cccnc12	–	6.51 µM [falling, single point]	6.14%
O=C(COc1ccc(Cl)cc1)NCCCNC(=O)c1cccnc1	–	0.206 µM [falling, single point]	-25.7%
CC(C)CCNC(=O)C1CCN(S(=O)(=O)c2ccc3c(c2)CCC(=O)N3)CC1	29.1 µM [falling, single point]	–	-78.2%
CCOc1ccc(CNC(=O)C2CCCN(S(C)(=O)=O)C2)cc1OC (stereo not given)	–	0.366 µM [falling, full curve, poor fit]	0.78%
O=C(Nc1ccc(SC(F)F)cc1)c1cc(-c2ccncc2)nc2ccccc12	–	0.0206 µM [rising, single point]	-6.14%
CCOC(=O)c1[nH]c2ccc(Br)cc2c1NC(=O)CCN1CCC(C)CC1	–	29.1 µM [rising, single point]	–
C=CCn1c(SCC(=O)Nc2c(C)cccc2C)nnc1-c1cnccn1	0.291 µM [rising, full curve]	0.146 µM [rising, full curve]	59.8%

Single records, as listed above.
`O=[N+]([O-])c1c(Nc2ccccn2)cc(Cl)c2nonc12` in the list: AC50 [1]: 0.0146 µM [falling, full curve]; AC50 [2]: 14.6 µM [falling, partial curve, poor fit]; cell number change: -64%
`COc1ccc(C(=O)N/C(=C\c2ccccc2)C(=O)Nc2ccc(C(=O)O)cc2)cc1` in the list: AC50 [1]: 10.3 µM [rising, partial curve]; cell number change: 30.3%
